Data on three substances can be found in PMC11336944.

Amino acid sequences for entries named in this document (tags omitted).
UniProt O70133: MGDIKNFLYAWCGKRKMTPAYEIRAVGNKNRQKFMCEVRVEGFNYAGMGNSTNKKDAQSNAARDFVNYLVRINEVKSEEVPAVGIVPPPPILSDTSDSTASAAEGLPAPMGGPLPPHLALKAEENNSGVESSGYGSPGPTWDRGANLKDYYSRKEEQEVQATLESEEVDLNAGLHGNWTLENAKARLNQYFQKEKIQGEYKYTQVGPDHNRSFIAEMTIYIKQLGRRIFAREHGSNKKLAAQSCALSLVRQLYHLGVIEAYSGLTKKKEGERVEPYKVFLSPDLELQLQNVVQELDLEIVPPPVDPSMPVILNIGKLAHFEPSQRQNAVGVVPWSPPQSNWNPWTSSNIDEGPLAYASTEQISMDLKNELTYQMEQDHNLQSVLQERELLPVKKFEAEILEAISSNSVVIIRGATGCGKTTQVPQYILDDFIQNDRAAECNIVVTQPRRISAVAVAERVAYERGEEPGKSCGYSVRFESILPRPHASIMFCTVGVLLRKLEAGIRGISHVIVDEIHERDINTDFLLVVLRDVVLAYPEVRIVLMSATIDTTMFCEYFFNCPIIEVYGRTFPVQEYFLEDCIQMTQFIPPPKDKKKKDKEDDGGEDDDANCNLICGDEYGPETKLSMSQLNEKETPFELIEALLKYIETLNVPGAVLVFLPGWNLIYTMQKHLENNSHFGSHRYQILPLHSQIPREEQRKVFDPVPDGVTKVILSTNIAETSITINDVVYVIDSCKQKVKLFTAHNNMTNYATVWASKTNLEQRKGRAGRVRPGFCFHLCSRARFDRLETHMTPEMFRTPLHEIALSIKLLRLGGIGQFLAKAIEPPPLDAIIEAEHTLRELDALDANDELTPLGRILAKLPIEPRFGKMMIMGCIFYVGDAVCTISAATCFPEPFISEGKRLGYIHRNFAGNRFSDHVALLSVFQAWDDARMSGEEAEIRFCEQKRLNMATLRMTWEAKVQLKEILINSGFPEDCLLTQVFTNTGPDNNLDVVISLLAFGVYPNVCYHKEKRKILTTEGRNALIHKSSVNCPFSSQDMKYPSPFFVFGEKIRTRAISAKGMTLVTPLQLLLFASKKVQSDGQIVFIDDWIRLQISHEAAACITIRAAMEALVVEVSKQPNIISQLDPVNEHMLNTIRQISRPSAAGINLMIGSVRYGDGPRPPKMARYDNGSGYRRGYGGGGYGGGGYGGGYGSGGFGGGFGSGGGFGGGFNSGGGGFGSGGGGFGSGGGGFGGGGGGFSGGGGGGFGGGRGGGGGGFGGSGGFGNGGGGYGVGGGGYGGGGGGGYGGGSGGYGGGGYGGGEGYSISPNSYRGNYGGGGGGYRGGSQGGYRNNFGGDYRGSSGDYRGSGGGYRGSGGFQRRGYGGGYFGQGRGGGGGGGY
UniProt P29341: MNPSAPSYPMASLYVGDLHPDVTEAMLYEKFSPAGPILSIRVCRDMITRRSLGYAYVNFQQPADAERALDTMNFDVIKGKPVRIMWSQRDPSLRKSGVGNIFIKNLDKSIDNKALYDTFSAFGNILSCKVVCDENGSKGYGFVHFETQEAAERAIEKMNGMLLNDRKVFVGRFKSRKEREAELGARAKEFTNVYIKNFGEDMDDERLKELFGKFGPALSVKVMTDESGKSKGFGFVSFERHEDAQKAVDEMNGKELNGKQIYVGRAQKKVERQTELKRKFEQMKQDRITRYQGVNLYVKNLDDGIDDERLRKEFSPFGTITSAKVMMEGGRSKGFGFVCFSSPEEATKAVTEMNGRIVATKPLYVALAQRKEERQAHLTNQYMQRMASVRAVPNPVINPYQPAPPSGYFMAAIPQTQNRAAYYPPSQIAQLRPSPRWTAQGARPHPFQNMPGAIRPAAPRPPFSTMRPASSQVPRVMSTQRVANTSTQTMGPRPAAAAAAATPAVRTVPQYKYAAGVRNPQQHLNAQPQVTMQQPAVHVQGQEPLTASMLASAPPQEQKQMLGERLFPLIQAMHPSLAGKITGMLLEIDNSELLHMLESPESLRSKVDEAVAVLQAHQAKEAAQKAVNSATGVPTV
UniProt O35286: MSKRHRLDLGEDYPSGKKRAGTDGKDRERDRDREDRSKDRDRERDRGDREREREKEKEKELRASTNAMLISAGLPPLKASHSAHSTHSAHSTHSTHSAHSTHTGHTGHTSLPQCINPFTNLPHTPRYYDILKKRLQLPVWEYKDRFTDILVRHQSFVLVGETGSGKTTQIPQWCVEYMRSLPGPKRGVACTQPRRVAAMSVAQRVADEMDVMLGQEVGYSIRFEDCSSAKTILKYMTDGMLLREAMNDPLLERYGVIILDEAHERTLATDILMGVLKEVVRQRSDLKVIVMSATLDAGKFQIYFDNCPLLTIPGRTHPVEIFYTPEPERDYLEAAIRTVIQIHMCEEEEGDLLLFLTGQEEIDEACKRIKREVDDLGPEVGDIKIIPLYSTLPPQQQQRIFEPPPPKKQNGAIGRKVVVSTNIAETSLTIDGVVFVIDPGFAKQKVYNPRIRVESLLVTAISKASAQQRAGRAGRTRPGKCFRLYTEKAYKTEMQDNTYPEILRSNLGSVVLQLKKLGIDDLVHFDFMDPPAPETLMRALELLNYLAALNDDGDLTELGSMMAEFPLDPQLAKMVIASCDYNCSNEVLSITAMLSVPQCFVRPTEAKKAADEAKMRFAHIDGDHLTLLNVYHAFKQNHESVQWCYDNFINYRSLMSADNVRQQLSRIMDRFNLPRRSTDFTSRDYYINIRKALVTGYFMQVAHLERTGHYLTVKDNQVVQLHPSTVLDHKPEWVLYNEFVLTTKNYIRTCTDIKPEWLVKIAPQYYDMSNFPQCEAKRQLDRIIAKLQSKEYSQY

These are yes or no findings as the source states them, for the method shown. In cells and extracts the contact can be indirect. These calls come from enrichment with a bait or labelling near it, and not all partners need be listed.

This assay has as its target T1, CWF19‐like protein 2 (CWF19L2) (mouse (endogenous in testis)) (UniProt Q8BG79).
T1 sequence: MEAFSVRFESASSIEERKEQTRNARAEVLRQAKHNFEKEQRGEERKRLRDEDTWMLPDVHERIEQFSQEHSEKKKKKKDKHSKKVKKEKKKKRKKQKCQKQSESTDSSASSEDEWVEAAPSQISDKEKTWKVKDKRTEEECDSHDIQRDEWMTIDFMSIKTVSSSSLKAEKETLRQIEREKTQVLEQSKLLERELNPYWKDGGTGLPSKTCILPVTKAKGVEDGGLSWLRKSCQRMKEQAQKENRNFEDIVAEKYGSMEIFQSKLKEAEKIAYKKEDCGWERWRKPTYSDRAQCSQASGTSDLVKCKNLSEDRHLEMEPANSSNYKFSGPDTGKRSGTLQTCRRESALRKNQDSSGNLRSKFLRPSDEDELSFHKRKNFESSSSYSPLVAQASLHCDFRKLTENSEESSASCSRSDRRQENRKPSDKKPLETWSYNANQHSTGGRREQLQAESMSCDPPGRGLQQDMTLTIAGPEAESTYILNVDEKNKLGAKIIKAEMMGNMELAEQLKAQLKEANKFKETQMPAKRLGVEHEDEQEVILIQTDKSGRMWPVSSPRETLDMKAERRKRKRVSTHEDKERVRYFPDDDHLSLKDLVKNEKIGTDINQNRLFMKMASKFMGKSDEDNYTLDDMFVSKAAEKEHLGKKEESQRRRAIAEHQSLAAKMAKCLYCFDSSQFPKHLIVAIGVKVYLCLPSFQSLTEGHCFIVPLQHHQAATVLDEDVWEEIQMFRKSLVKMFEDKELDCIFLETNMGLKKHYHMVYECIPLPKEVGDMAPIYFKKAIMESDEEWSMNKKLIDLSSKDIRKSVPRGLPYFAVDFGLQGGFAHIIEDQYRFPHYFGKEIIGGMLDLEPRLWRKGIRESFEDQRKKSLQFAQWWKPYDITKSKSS
The assay is described as follows: affinity purification with mass spectrometry; immunoprecipitation of endogenous CWF19L2 from PD10 wild-type mouse testes, mass spectrometry (IP-MS).

As to DHX9 (from UniProt O70133 1-1380), the binding entry was “binds”.

Turning to PABPC1 (from UniProt P29341 1-636), the binding result is “binds”. Under PRPF43 (from UniProt O35286 1-795) stands “binds”.
